# Several values for one entry are separate records, joined by “and”; a condition that tells them apart may be missing. Equal entries are not always repeated. Out of some 580,000 compounds screened, about 6,100 (1.1%) were called active. The inconclusive results got no clear call from the source; some entries with a clear call stand among them for comparison. Calls follow the shape of the dose curve; as a rule, active = well fitted inhibition curve with a large enough effect; inconclusive = small, poorly fitted or top-dose-only effect, or another doubt; inactive = no such curve, though single readings can be large or run the other way. Potencies beside an inconclusive call are fits to weak or partial responses and may not hold up.
# Amino acid sequences for entries named in this document (tags omitted). A change or cut given only in a name is not applied to a line headed by its entry.
# UniProt P18054: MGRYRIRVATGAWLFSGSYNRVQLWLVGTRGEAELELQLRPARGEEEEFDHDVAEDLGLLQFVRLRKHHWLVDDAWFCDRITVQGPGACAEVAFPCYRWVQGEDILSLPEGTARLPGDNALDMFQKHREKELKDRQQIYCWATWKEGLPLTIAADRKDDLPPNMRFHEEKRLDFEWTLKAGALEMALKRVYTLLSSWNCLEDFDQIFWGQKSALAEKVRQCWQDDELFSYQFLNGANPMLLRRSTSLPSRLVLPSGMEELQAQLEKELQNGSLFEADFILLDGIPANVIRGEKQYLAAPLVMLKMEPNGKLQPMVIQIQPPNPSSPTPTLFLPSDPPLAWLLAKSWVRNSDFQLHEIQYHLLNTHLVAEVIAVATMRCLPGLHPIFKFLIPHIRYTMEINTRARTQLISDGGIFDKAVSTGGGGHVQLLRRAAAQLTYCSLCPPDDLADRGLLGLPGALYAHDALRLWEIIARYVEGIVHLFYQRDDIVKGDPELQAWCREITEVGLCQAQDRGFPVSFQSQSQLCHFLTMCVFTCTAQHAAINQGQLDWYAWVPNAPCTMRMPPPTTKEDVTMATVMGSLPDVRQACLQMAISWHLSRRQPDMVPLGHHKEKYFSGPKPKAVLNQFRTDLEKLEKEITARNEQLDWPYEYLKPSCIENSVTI
# Target: Polyunsaturated fatty acid lipoxygenase ALOX12 (Homo sapiens) (UniProt P18054)
# Experiment: Primary qHTS assay for inhibitors of human arachidonate 12S-lipoxygenase (ALOX12): Round 2
# Details: purified 12hLO, xylenol orange hydroperoxide absorbance; activity change, negative = inhibition: at 108 µM (top of the series) unless noted
# Outline: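 Purified human 12hLO (150 nM final) in 25 mM Hepes, 0.01% Triton X-100, pH 7.0 was preincubated 15 min at room temperature with compound. Then 40 uM arachidonic acid was added, 30 min. Hydroperoxide was read by Fe-XO absorbance ratio 573/405 nm.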
# % is scaled to controls: 0 for no effect and ±100 for the full control effect; potency is read from the fitted curve at half-maximal effect.
Compound,Potency,"activity change, negative = inhibition"
COc1ccc(Br)cc1/C=C(\C#N)C(N)=C(C#N)C#N,"inconclusive: 15.8 µM [inhibitor, full curve, poor fit]",–
CCOc1cc(/C=N/NC(N)=O)cc(Br)c1OCC(=O)Nc1cccc2ccccc12,–,inactive: 11.6%
COc1cc(NC(=O)Cn2c(C)cc3nc4n(c(=O)c32)CCCCC4)cc(OC)c1,–,inactive: 22.6%
CCc1ccc(-n2c(Cc3ccccc3)n[nH]c2=S)cc1,"inconclusive: 44.7 µM [inhibitor, partial curve, poor fit]",–
C[N+]1(CCC(=O)c2ccccc2)CCCCC1,"inconclusive: 44.7 µM [inhibitor, partial curve, poor fit]",–
OCCN1CCN(CCSc2ccccc2)CC1,"inconclusive: 39.8 µM [inhibitor, partial curve]",–
CN(Cc1ccc(Cl)c(Cl)c1)C(C(=O)NCc1ccccc1)c1ccc(C(F)(F)F)cc1 (stereo not drawn),–,inactive: 2.38%
COc1ccc2c(c1)/C(=C/c1cc(OC)c(OC)c(OC)c1)C(=O)N2,–,inactive: -1.61%
COc1cc2c(cc1OC)-c1cc(Nc3cccc(C)c3)nc(=O)n1CC2,"inconclusive: 35.5 µM [inhibitor, partial curve, poor fit]",–
O=C1CSc2ccc(C(=O)NC3CCCCC3)cc2N1,"inconclusive: 0.708 µM [inhibitor, full curve, poor fit]",–
O=C1Nc2c(c(=O)[nH]c(=O)n2-c2ccc(Cl)cc2)C1(NS(=O)(=O)c1ccccc1)C(F)(F)F (stereo not drawn),"inconclusive: 141 µM [inhibitor, single point]",–
CC(C)CC(COCc1ccc(Cl)cc1)N1CCN(C(=O)c2ccc(C(F)(F)F)cc2)CCC1=O (stereo not drawn),"inconclusive: 63.1 µM [inhibitor, partial curve, poor fit]",–
COc1ccc(NC(=S)N(CCCN2CCC(C)CC2)Cc2cccs2)cc1Cl,–,inactive: 10.6%
N#CC1=C(N)OC2=C(C(=O)CCC2)C1c1ccc(OC(=O)c2ccccc2)cc1 (stereo not drawn),"inconclusive: 141 µM [inhibitor, single point]",–
CC(=O)N1CCN(c2ccc(N3CCN(Cc4ccccc4)[C@H](C)C3)c(C)c2)[C@@H](C)C1,"inconclusive: 50.1 µM [inhibitor, partial curve, poor fit]",–
Cc1ccc2c(C(=O)N3CCCCCC3)cc(NC(=O)C3CC3)cc2n1,–,inactive: 9.81%
Cc1c(CC(=O)N2CCCCC2)c(=O)oc2c(C)c(O)ccc12,–,inconclusive: -33.3% [inhibitor]
COc1ccc(NC(C)=O)cc1NC(=O)CCn1cnc2c1c(=O)n(C)c(=O)n2C,–,inactive: 2.56%
NC(=S)Nc1ccc(S(=O)(=O)c2ccc(NC(N)=S)cc2)cc1,active: 39.8 µM,–
COc1ccc(/C=C/c2nc(C#N)c(NCc3ccc4c(c3)OCO4)o2)cc1OC,–,inactive: 94.1%
O=C(NC(=S)N1CCOCC1)c1cn(-c2ccccc2)nc1-c1ccccc1,"inconclusive: 39.8 µM [inhibitor, partial curve, poor fit]",–
COc1ccc(C2CC(C(F)(F)F)n3nc(C(=O)O)cc3N2)cc1OC (stereo not drawn),"inconclusive: 100 µM [inhibitor, partial curve, poor fit]",–

# Some of the entries so far, bar-delimited.
Compound | Potency | activity change, negative = inhibition
COc1cc2c(cc1OC)-c1cc(Nc3cccc(C)c3)nc(=O)n1CC2 | inconclusive: 35.5 µM [inhibitor, partial curve, poor fit] | –
O=C1CSc2ccc(C(=O)NC3CCCCC3)cc2N1 | inconclusive: 0.708 µM [inhibitor, full curve, poor fit] | –
O=C1Nc2c(c(=O)[nH]c(=O)n2-c2ccc(Cl)cc2)C1(NS(=O)(=O)c1ccccc1)C(F)(F)F (stereo not drawn) | inconclusive: 141 µM [inhibitor, single point] | –
CC(C)CC(COCc1ccc(Cl)cc1)N1CCN(C(=O)c2ccc(C(F)(F)F)cc2)CCC1=O (stereo not drawn) | inconclusive: 63.1 µM [inhibitor, partial curve, poor fit] | –
COc1ccc(NC(=S)N(CCCN2CCC(C)CC2)Cc2cccs2)cc1Cl | – | inactive: 10.6%
N#CC1=C(N)OC2=C(C(=O)CCC2)C1c1ccc(OC(=O)c2ccccc2)cc1 (stereo not drawn) | inconclusive: 141 µM [inhibitor, single point] | –
CC(=O)N1CCN(c2ccc(N3CCN(Cc4ccccc4)[C@H](C)C3)c(C)c2)[C@@H](C)C1 | inconclusive: 50.1 µM [inhibitor, partial curve, poor fit] | –
Cc1ccc2c(C(=O)N3CCCCCC3)cc(NC(=O)C3CC3)cc2n1 | – | inactive: 9.81%
Cc1c(CC(=O)N2CCCCC2)c(=O)oc2c(C)c(O)ccc12 | – | inconclusive: -33.3% [inhibitor]
COc1ccc(NC(C)=O)cc1NC(=O)CCn1cnc2c1c(=O)n(C)c(=O)n2C | – | inactive: 2.56%
NC(=S)Nc1ccc(S(=O)(=O)c2ccc(NC(N)=S)cc2)cc1 | active: 39.8 µM | –

# Additional results

Compound,Potency,"activity change, negative = inhibition"
Cc1ccc(-n2c(SCC(=O)NCc3ccco3)nc3sc4c(c3c2=O)CC(C)(C)SC4)cc1,–,inactive: -14.7%
CCc1nc2c(OCCC3CCCCC3)cccn2c1N(C)C(=O)c1ccc(C)cc1,active: 44.7 µM,–
COCCCNC(=S)NNC(=S)Nc1ccccc1,"inconclusive: 35.5 µM [inhibitor, partial curve, poor fit]",–
CC(=O)Nc1ccc(S(=O)(=O)NNC(=O)c2cccc3ccccc23)cc1,"inconclusive: 50.1 µM [inhibitor, partial curve, poor fit]",–
O=C(c1ccco1)N1CCN(Cc2csc(-c3ccccc3Cl)n2)CC1,"inconclusive: 35.5 µM [inhibitor, partial curve, poor fit]",–
Cc1onc(-c2ccccc2)c1-c1nnc(CSc2nnnn2C)o1,"inconclusive: 44.7 µM [inhibitor, partial curve, poor fit]",–
O=c1c2ccccc2c(-c2ccc(F)cc2)nn1-c1ccc(C(F)(F)F)cc1,"inconclusive: 126 µM [inhibitor, partial curve, poor fit]",–
O=C(O)c1cc2cc(Cl)ccc2oc1=O,"inconclusive: 56.2 µM [inhibitor, partial curve, poor fit]",–
Cc1cc(C)c2c(N=NN3CCOCC3)[nH]nc2n1,"inconclusive: 15.8 µM [inhibitor, full curve, poor fit]",–
O=C(O)c1cc(Br)ccc1NN=C1CCCCC1,"inconclusive: 44.7 µM [inhibitor, partial curve, poor fit]",–
O=C(NNC(=S)Nc1ccccc1)Nc1ccccc1,–,inactive: -23.7%
CCCCN(CCCC)CC(C)(C)NS(=O)(=O)c1ccccc1,"inconclusive: 1 µM [inhibitor, full curve]",–
CCOc1ccc(-c2nc3c4c5c(sc4ncn3n2)COC(C)(C)C5)cc1,–,inactive: 41.6%
CC1(C)CC(=O)c2sc(NS(=O)(=O)c3ccc([N+](=O)[O-])cc3)nc2C1,"inconclusive: 44.7 µM [inhibitor, partial curve]",–
O=C(NCCCN1CCOCC1)c1cc(-c2ccc(Cl)s2)nc2ccccc12,"inconclusive: 56.2 µM [inhibitor, partial curve, poor fit] and inconclusive: 79.4 µM [inhibitor, partial curve, poor fit]",–
Cc1ccc(NC(=S)NNc2ccc(C(=O)O)cc2[N+](=O)[O-])cc1C,active: 1.41 µM,–
CN1CCN(c2ccc(NC(=O)c3cccc(S(=O)(=O)NCc4cccs4)c3)cc2)CC1,"inconclusive: 141 µM [inhibitor, single point]",–
CN(C(=O)CCc1ccsc1)C1CCCCC1,–,inactive: -8.2%
Cc1cccc(NC(=O)Cn2nc(C)c3nn(-c4ccc(Cl)cc4)c(C)c3c2=O)c1C,"inconclusive: 100 µM [inhibitor, partial curve, poor fit]",–
CN1CCC(Oc2ccc(C(N)=O)cn2)CC1,–,inactive: 19%
COc1cc(Nc2ccc(S(=O)(=O)N3CCN(C)CC3)cc2[N+](=O)[O-])cc(OC)c1,"inconclusive: 3.98 µM [inhibitor, full curve, poor fit]",–

# From PubChem BioAssay AID1671190 (National Center for Advancing Translational Sciences (NCATS), 2021)
